Among the data in paper PMC9795577 are binding values, retold here.

Chains of the proteins cited; added tags and fusions are not shown. Lines headed by an entry give the natural chain unless they say otherwise; changes in a name come on top. A line that says so, or that is headed by a name, gives the form on record, which may keep a tag or linker.
entire unstructured N-terminal region (including the YG domain) of Arabidopsis thaliana PEX13, amino acids 1–193 (Q9SRR0, form named): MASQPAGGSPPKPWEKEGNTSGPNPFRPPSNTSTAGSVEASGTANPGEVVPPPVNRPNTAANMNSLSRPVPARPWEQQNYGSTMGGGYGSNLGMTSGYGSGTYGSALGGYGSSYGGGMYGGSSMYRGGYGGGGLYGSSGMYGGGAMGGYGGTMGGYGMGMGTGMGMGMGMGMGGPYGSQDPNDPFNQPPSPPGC
UniProt A0A1L8FDW4: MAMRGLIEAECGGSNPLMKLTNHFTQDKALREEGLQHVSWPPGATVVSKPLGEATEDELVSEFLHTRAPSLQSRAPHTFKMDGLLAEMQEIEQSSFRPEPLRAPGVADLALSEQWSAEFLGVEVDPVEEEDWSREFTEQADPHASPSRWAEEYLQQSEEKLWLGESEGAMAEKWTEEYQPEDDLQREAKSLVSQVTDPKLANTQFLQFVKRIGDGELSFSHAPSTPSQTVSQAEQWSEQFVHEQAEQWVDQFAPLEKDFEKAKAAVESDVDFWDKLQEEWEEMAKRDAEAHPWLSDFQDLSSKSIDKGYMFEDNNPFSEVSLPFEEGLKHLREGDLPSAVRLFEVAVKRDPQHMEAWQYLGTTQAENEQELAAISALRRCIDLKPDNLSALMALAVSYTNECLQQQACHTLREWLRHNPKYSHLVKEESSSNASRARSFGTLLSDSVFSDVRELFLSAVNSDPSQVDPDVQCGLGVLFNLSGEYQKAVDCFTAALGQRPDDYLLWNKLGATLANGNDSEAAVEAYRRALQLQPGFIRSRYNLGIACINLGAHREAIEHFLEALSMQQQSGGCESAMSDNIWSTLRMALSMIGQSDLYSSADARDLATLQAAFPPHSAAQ

No constants are given. Whether binding was seen depends on the method and setting. For part of these data: A result given as binding can be weak or reduced; the word gives no strength.

The target of assay [1] is entire unstructured N-terminal region (including the YG domain) of Arabidopsis thaliana PEX13, amino acids 1–193 (Arabidopsis thaliana) (UniProt Q9SRR0). The experiment in a line: hydrogel permeation assay (confocal microscopy); droplets of the PEX13 1-193 hydrogel (40 mg/ml) in 25 mM HEPES-KOH pH 7.8, 130 mM KCl; GFP or GFP-SKL with or without non-fluorescent PEX5 variants, all proteins at 500 nM; enrichment of the GFP cargo inside the gel over buffer after 30 min; both purified.

Assay [2] shares this target. The experiment in a line: hydrogel permeation assay (confocal microscopy); droplets of the PEX13 1-193 hydrogel (40 mg/ml) in 25 mM HEPES-KOH pH 7.8, 130 mM KCl; GFP fusion proteins or GFP alone added at 500 nM; enrichment inside the gel over buffer after 30 min; both purified.

For “full-length PEX5 lacking all of the WxxxF/Y motifs (non-fluorescent) (from UniProt A0A1L8FDW4) (receptor)”, the binding result in assay [1] is given as “no binding (tested: 500 nM)”.

In the case of “N-terminal region of PEX5 (amino acids 1–268, including all WxxxF/Y motifs) fused to GFP (from UniProt A0A1L8FDW4) (domain or fragment)”, the binding result in assay [2] is given as “binds”.

Consider “cargo-binding TPR domain of PEX5 (amino acids 260–579) fused to GFP (from UniProt A0A8J0TE97) (domain or fragment)”, for which the binding result in assay [2] is listed as “binds weakly”.
